Values quoted from earlier work, collected in patent US20080032961A1, “Therapy employing LXRalpha modolators” (priority 2001, published 2008).
At least one structure is not confirmed: it was looked up by name or label, or the drawing left a doubt.

Test system: 3T3-L1 pre-adipocytes
Conditions: cited from earlier work

CCc1ccc(CCOc2ccc(CC3SC(=O)NC3=O)cc2)nc1 (stereo not shown) [Pioglitazone]
insulin or IGF-I-regulated differentiation, monitored by rate of lipogenesis or triglyceride accumulation: enhanced
